Data from US20110224243A1, “FZD2 Molulators in the Treatment of Alopecia” (Galderma Research & Development, priority 2008, published 2011).
At least one structure is not confirmed: it was looked up by name or label, or the drawing left a doubt.

Tests used:
Fzd6 receptor = assay: Fzd6 expression in mouse dorsal skin after minoxidil treatment, kRT-PCR; format: in vivo; conditions: C57BL/6 mice in telogen, 50 μl minoxidil 2.5% in ethanol, 6 h after treatment
Fzd2 receptor = assay: Fzd2 expression in mouse dorsal skin after minoxidil treatment, kRT-PCR; format: in vivo; conditions: C57BL/6 mice in telogen, 50 μl minoxidil 2.5% in ethanol
Fzd1 receptor = assay: Fzd1 expression in mouse dorsal skin after minoxidil treatment, kRT-PCR; format: in vivo; conditions: C57BL/6 mice in telogen, 50 μl minoxidil 2.5% in ethanol
[1] = tested on: hair follicles of the dorsal region; assay: Entry of telogen hair follicles into anagen after minoxidil treatment; format: in vivo, mouse; conditions: C57BL/6 mice, 2.5% minoxidil during the telogen phase, compared with control animals

## Nc1cc(N2CCCCC2)nc(N)[n+]1[O-] [minoxidil]
Fzd6 receptor
  Fzd6 receptor expression level relative to control individuals: induced
Fzd2 receptor; 24 h after treatment
  Fzd2 receptor expression level relative to control individuals: induced
Fzd2 receptor; starting from 48 h
  Fzd2 receptor expression level relative to control individuals: returns to the expression level in the skin of the control individuals
Fzd1 receptor; 24 h after treatment
  Fzd1 receptor expression level relative to control individuals: induced
Fzd1 receptor; starting from 48 h
  Fzd1 receptor expression level relative to control individuals: returns to the expression level in the skin of the control individuals
[1]
  Entry of the hair follicles of the dorsal region into the anagen phase: causes rapid entry of the hair follicles of the dorsal region into the anagen phase
